Laboratory results as given in US7514455B2, “Inhibitors against complex II of electron transport system” (The Kitasato Institute, priority 2002, dated 2009).
Some results were stated once for a whole list of compounds, not compound by compound. Some compounds share one range, which may span the group rather than tell each member.

Sequences of proteins named here, by UniProt entry; tags and fusion partners are left off. Residues count along the entry.
UniProt P35720, 30-169: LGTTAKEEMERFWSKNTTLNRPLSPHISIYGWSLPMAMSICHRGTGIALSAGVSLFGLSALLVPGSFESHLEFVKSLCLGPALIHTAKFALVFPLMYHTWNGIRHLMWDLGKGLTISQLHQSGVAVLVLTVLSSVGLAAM
UniProt Q3T189, 29-280: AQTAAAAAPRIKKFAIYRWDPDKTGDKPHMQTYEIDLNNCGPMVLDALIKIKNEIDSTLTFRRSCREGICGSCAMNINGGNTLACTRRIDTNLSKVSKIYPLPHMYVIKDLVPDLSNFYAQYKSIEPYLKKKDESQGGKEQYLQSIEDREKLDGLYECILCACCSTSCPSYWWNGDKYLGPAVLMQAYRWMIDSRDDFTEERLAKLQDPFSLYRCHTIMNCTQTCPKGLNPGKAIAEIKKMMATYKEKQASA
UniProt Q95123, 56-158: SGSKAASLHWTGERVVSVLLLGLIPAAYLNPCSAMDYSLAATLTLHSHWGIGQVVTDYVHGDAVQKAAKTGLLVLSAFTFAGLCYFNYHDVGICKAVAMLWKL

What follows are compounds tested against T1, bovine heart complex II (succinate-ubiquinone oxidoreductase) (Bos taurus, UniProt P35720+Q3T189+Q95123) (assay: Inhibition of succinate dehydrogenase activity of bovine heart complex II (DCIP reduction)). Details: compared with prior known complex II inhibitors thenoyltrifluoroacetone and carboxin; one range for the four compounds together.
T1 construct: of the bovine heart, mitochondria prepared according to the method of S. Takamiya et al; from tissue; host or cells: bovine heart mitochondria
Format: biochemical

Row | Structure (SMILES) | times stronger inhibitory activities against the bovine heart complex II than thenoyltrifluoroacetone and carboxin
1 | C/C=C/CC(C)C(=O)c1c(O)c(OC)c(OC)[nH]c1=O (stereo not shown) [Harzianopyridone, harzianopyridone] | 60-1600 times
2 | COc1nc(O)c(C(=O)C(C)CC(C)C(C)Cl)c(O)c1OC (stereo not shown) [Atpenin A4, atpenin A4] | 60-1600 times
3 | COc1nc(O)c(C(=O)C(C)CC(C)C(Cl)CCl)c(O)c1OC (stereo not shown) [Atpenin A5, atpenin A5] | 60-1600 times
4 | CCC(C)CC(C)C(=O)c1c(O)nc(OC)c(OC)c1O (stereo not shown) [Atpenin B, atpenin B] | 60-1600 times
